Source: PMC5641094, “A peptide antagonist of Prep1-p160 interaction improves ceramide-induced insulin resistance in skeletal muscle cells” (Oncotarget, 2017)
Results are given in words; binding and its absence hold for the method and conditions named. Some results given as binding are weak or reduced against the parent protein; the word gives no strength. Where a sequence is shown, tags or fusion partners need not be part of it.

B1: His6-tagged p160(20-160) (domain or fragment, UniProt Q7TPV4 20-160)
chain: QSDRHSLLEHSREFLDFFWDIAKPDQETRLRATEKLLEYLRTRPNDSEMKYALKRLITGLGVGREAARPCYSLALAQLLQSFEDIPLCDILDQIQEKYSLQAMNKAMMRPSLFANLFGVLALFQSGRLVKDKEALMKSVQL

Columns and labels:
[1] = target: T1, His6-tagged p160(20-160) (UniProt Q7TPV4 20-160); assay: ELISA; competition ELISA: plate coated with Prep1(45-155) (0.1 uM); His6-tagged p160(20-160) at 0.25 uM pre-incubated with peptides at 0.001-10 uM; detection with anti-His HRP-conjugated antibody; both purified
T1 construct: also called His6-p160(20-160); p160(20-160) domain
T1 sequence (looked up): B1 chain

[2] = target: T2, Prep1(45-155) (UniProt P55347); assay: as above
T2 sequence: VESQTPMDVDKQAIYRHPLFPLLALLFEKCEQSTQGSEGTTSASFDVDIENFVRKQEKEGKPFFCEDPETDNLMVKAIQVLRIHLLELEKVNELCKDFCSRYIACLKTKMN

Binder | binding [1] | binding [2]
RHPLFPLLALLFEK (N-terminal acetyl (Ac-); C-terminal amide (-NH2)) [Prep1(59-72) peptide] | binds | 
B1 |  | binds
